# According to the supplement of paper PMC8728848:
# The list shows a part of the results.
# Legend:
# Assay in all cases: glycan array binding signal (z-score within array); higher = stronger binding
# Details in all cases: glycan notation: IUPAC condensed, linker removed
# [1] = molecular target: Neu5Ac(a2-3)GalNAc
# How it was run: (§1)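 Columns mapping to the same glycan were averaged after glycan names were converted to IUPAC-condensed notation. The data come from 3228 arrays in the Consortium for Functional Glycomics database, limited to those with an available protein sequence. Binding is reported as a within-array Z-score averaged across arrays of one protein sequence and across linkers.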
# [2] = molecular target: Neu5Ac(a2-3)GalNAc(b1-4)GlcNAc
# How it was run: as §1
# [3] = molecular target: Neu5Ac(a2-3)[GalNAc(b1-4)]Gal(b1-4)Glc
# How it was run: as §1
# [4] = molecular target: Neu5Ac(a2-3)[GalNAc(b1-4)]Gal(b1-4)GlcNAc
# How it was run: as §1
# [5] = molecular target: Neu5Ac(a2-3)[GalNAc(b1-4)]Gal(b1-4)GlcNAc(b1-3)GalNAc
# How it was run: as §1
# [6] = molecular target: Neu5Ac(a2-3)[Neu5Ac(a2-6)]GalNAc
# How it was run: as §1
# [7] = molecular target: Neu5Ac(a2-6)Gal
# How it was run: as §1
# [8] = molecular target: Neu5Ac(a2-6)Gal(b1-3)GlcNAc(b1-3)[Gal(b1-4)GlcNAc(b1-6)]Gal(b1-4)Glc
# How it was run: as §1
# [9] = molecular target: Neu5Ac(a2-6)Gal(b1-4)Glc
# How it was run: as §1
# [10] = molecular target: Neu5Ac(a2-6)Gal(b1-4)GlcNAc
# How it was run: as §1
# [11] = molecular target: Neu5Ac(a2-6)Gal(b1-4)GlcNAc(b1-2)Man
# How it was run: as §1
# [12] = molecular target: Neu5Ac(a2-6)Gal(b1-4)GlcNAc(b1-2)Man(a1-3)Man(b1-4)GlcNAc(b1-4)GlcNAc
# How it was run: as §1
# [13] = molecular target: Neu5Ac(a2-6)Gal(b1-4)GlcNAc(b1-2)Man(a1-3)[Gal(b1-4)GlcNAc(b1-2)Man(a1-6)]Man(b1-4)GlcNAc(b1-4)GlcNAc
# How it was run: as §1
# [14] = molecular target: Neu5Ac(a2-6)Gal(b1-4)GlcNAc(b1-2)Man(a1-3)[GlcNAc(b1-4)][Neu5Ac(a2-6)Gal(b1-4)GlcNAc(b1-2)Man(a1-6)]Man(b1-4)GlcNAc(b1-4)GlcNAc
# How it was run: as §1
# [15] = molecular target: Neu5Ac(a2-6)Gal(b1-4)GlcNAc(b1-2)Man(a1-3)[Man(a1-6)]Man(b1-4)GlcNAc(b1-4)GlcNAc
# How it was run: as §1
# [16] = molecular target: Neu5Ac(a2-6)Gal(b1-4)GlcNAc(b1-2)Man(a1-3)[Neu5Ac(a2-3)Gal(b1-4)GlcNAc(b1-2)Man(a1-6)]Man(b1-4)GlcNAc(b1-4)GlcNAc
# How it was run: as §1
# [17] = molecular target: Neu5Ac(a2-6)Gal(b1-4)GlcNAc(b1-2)Man(a1-3)[Neu5Ac(a2-6)Gal(b1-4)GlcNAc(b1-2)Man(a1-6)]Man(b1-4)GlcNAc(b1-4)GlcNAc
# How it was run: as §1
# [18] = molecular target: Neu5Ac(a2-6)Gal(b1-4)GlcNAc(b1-2)Man(a1-3)[Neu5Ac(a2-6)Gal(b1-4)GlcNAc(b1-2)Man(a1-6)]Man(b1-4)GlcNAc(b1-4)[Fuc(a1-6)]GlcNAc
# How it was run: as §1
# [19] = molecular target: Neu5Ac(a2-6)Gal(b1-4)GlcNAc(b1-2)Man(a1-6)Man(b1-4)GlcNAc(b1-4)GlcNAc
# How it was run: as §1
# [20] = molecular target: Neu5Ac(a2-6)Gal(b1-4)GlcNAc(b1-2)Man(a1-6)[Gal(b1-4)GlcNAc(b1-2)Man(a1-3)]Man(b1-4)GlcNAc(b1-4)GlcNAc
# How it was run: as §1
# [21] = molecular target: Neu5Ac(a2-6)Gal(b1-4)GlcNAc(b1-2)Man(a1-6)[GlcNAc(b1-2)Man(a1-3)]Man(b1-4)GlcNAc(b1-4)GlcNAc
# How it was run: as §1
# [22] = molecular target: Neu5Ac(a2-6)Gal(b1-4)GlcNAc(b1-2)Man(a1-6)[Man(a1-3)]Man(b1-4)GlcNAc(b1-4)GlcNAc
# How it was run: as §1
# [23] = molecular target: Neu5Ac(a2-6)Gal(b1-4)GlcNAc(b1-2)[Neu5Ac(a2-6)Gal(b1-4)GlcNAc(b1-4)]Man(a1-3)[GlcNAc(b1-4)][Neu5Ac(a2-6)Gal(b1-4)GlcNAc(b1-2)[Neu5Ac(a2-6)Gal(b1-4)GlcNAc(b1-6)]Man(a1-6)]Man(b1-4)GlcNAc(b1-4)GlcNAc
# How it was run: as §1
# [24] = molecular target: Neu5Ac(a2-6)Gal(b1-4)GlcNAc(b1-2)[Neu5Ac(a2-6)Gal(b1-4)GlcNAc(b1-4)]Man(a1-3)[GlcNAc(b1-4)][Neu5Ac(a2-6)Gal(b1-4)GlcNAc(b1-4)Man(a1-6)]Man(b1-4)GlcNAc(b1-4)GlcNAc
# How it was run: as §1
# [25] = molecular target: Neu5Ac(a2-6)Gal(b1-4)GlcNAc(b1-2)[Neu5Ac(a2-6)Gal(b1-4)GlcNAc(b1-6)]Man(a1-6)[Neu5Ac(a2-6)Gal(b1-4)GlcNAc(b1-2)Man(a1-3)][GlcNAc(b1-4)]Man(b1-4)GlcNAc(b1-4)GlcNAc
# How it was run: as §1
# [26] = molecular target: Neu5Ac(a2-6)Gal(b1-4)GlcNAc(b1-3)Gal(b1-3)GlcNAc
# How it was run: as §1
# [27] = molecular target: Neu5Ac(a2-6)Gal(b1-4)GlcNAc(b1-3)Gal(b1-4)GlcNAc
# How it was run: as §1
# [28] = molecular target: Neu5Ac(a2-6)Gal(b1-4)GlcNAc(b1-3)Gal(b1-4)GlcNAc(b1-2)Man(a1-3)[Neu5Ac(a2-6)Gal(b1-4)GlcNAc(b1-3)Gal(b1-4)GlcNAc(b1-2)Man(a1-6)]GalNAc
# How it was run: as §1
# [29] = molecular target: Neu5Ac(a2-6)Gal(b1-4)GlcNAc(b1-3)Gal(b1-4)GlcNAc(b1-3)Gal(b1-4)GlcNAc
# How it was run: as §1
# [30] = molecular target: Neu5Ac(a2-6)Gal(b1-4)GlcNAc(b1-3)Gal(b1-4)GlcNAc(b1-3)Gal(b1-4)GlcNAc(b1-2)Man(a1-3)[Neu5Ac(a2-6)Gal(b1-4)GlcNAc(b1-3)Gal(b1-4)GlcNAc(b1-3)Gal(b1-4)GlcNAc(b1-2)Man(a1-6)]GalNAc
# How it was run: as §1
# [31] = molecular target: Neu5Ac(a2-6)Gal(b1-4)GlcNAc(b1-3)Gal(b1-4)GlcNAc(b1-3)GalNAc
# How it was run: as §1
# [32] = molecular target: Neu5Ac(a2-6)Gal(b1-4)GlcNAc(b1-3)Gal(b1-4)GlcNAc(b1-3)[Neu5Ac(a2-6)Gal(b1-4)GlcNAc(b1-3)Gal(b1-4)GlcNAc(b1-6)]GalNAc
# How it was run: as §1
# [33] = molecular target: Neu5Ac(a2-6)Gal(b1-4)GlcNAc(b1-3)Gal(b1-4)GlcNAc(b1-6)[Gal(b1-3)]GalNAc
# How it was run: as §1
# [34] = molecular target: Neu5Ac(a2-6)Gal(b1-4)GlcNAc(b1-3)Gal(b1-4)[Fuc(a1-3)]GlcNAc(b1-3)Gal(b1-4)[Fuc(a1-3)]GlcNAc
# How it was run: as §1
# [35] = molecular target: Neu5Ac(a2-6)Gal(b1-4)GlcNAc(b1-3)GalNAc
# How it was run: as §1
# [36] = molecular target: Neu5Ac(a2-6)Gal(b1-4)GlcNAc(b1-3)[Neu5Ac(a2-6)Gal(b1-4)GlcNAc(b1-6)]GalNAc
# How it was run: as §1
# [37] = molecular target: Neu5Ac(a2-6)Gal(b1-4)GlcNAc(b1-6)GalNAc
# How it was run: as §1
# [38] = molecular target: Neu5Ac(a2-6)Gal(b1-4)GlcNAc(b1-6)[Gal(b1-3)GlcNAc(b1-3)]Gal(b1-4)Glc
# How it was run: as §1
binder,measurement,setting,value
Pwp7 (Candida glabrata) (protein) MGSSHHHHHHSSGLVPRGSHMASKNPVDFPNLCQYPNLDGAVAGFDTEIYNADPSILINFSLWPILQFPKEWHKTIGRAITTQTNFKLPASDTTLFGVSIPTQNILIEFRGYFIPPKSGTYTFALYLTDDGSAMFLGNDAAFPCGNITSWSNPTNDQVSVSDYDPKKKTLTVYMVAGVAYPLRIAYYNREKGGSLTASFVDPDGLTHSDWNGYIWTLPSCDNCKYS,glycan array binding signal (z-score),[1],-0.36
same,glycan array binding signal (z-score),[2],-0.514
same,glycan array binding signal (z-score),[3],0.515
same,glycan array binding signal (z-score),[4],-0.542
same,glycan array binding signal (z-score),[5],0.373
same,glycan array binding signal (z-score),[6],1.72
same,glycan array binding signal (z-score),[7],-1.18
same,glycan array binding signal (z-score),[8],-0.363
same,glycan array binding signal (z-score),[9],-0.159
same,glycan array binding signal (z-score),[10],-0.878
same,glycan array binding signal (z-score),[11],-0.256
same,glycan array binding signal (z-score),[12],0.078
same,glycan array binding signal (z-score),[13],-0.168
same,glycan array binding signal (z-score),[14],0.213
same,glycan array binding signal (z-score),[15],0.04
same,glycan array binding signal (z-score),[16],1.81
same,glycan array binding signal (z-score),[17],0.696
same,glycan array binding signal (z-score),[18],0.532
same,glycan array binding signal (z-score),[19],0.746
same,glycan array binding signal (z-score),[20],-0.078
same,glycan array binding signal (z-score),[21],1.52
same,glycan array binding signal (z-score),[22],0.77
same,glycan array binding signal (z-score),[23],-0.287
same,glycan array binding signal (z-score),[24],-0.298
same,glycan array binding signal (z-score),[25],-0.125
same,glycan array binding signal (z-score),[26],-0.452
same,glycan array binding signal (z-score),[27],-0.707
same,glycan array binding signal (z-score),[28],1.92
same,glycan array binding signal (z-score),[29],0.98
same,glycan array binding signal (z-score),[30],3.78
same,glycan array binding signal (z-score),[31],0.805
same,glycan array binding signal (z-score),[32],2.04
same,glycan array binding signal (z-score),[33],0.645
same,glycan array binding signal (z-score),[34],-0.43
same,glycan array binding signal (z-score),[35],0.055
same,glycan array binding signal (z-score),[36],-0.154
same,glycan array binding signal (z-score),[37],-0.331
same,glycan array binding signal (z-score),[38],0.395

# Part of the list above in a different format.
binder	measurement	setting	value
Pwp7 (Candida glabrata) (protein) MGSSHHHHHHSSGLVPRGSHMASKNPVDFPNLCQYPNLDGAVAGFDTEIYNADPSILINFSLWPILQFPKEWHKTIGRAITTQTNFKLPASDTTLFGVSIPTQNILIEFRGYFIPPKSGTYTFALYLTDDGSAMFLGNDAAFPCGNITSWSNPTNDQVSVSDYDPKKKTLTVYMVAGVAYPLRIAYYNREKGGSLTASFVDPDGLTHSDWNGYIWTLPSCDNCKYS	glycan array binding signal (z-score)	[12]	0.078
same	glycan array binding signal (z-score)	[13]	-0.168
